# Experimental data taken from PubChem BioAssay AID2517 (National Center for Advancing Translational Sciences (NCATS), 2010).
# Amino acid sequences for entries named in this document (tags omitted).
# UniProt P27695, whole entry, looked up: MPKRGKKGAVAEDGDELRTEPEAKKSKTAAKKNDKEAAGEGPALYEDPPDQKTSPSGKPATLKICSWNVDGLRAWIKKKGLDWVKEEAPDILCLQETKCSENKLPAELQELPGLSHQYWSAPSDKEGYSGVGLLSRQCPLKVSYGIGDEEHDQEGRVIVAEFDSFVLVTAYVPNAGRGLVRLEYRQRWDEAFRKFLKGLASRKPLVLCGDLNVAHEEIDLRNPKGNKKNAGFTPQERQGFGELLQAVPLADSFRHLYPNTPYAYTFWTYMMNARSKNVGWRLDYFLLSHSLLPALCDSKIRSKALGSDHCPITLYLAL
# Out of some 350,000 compounds screened, about 1,200 (0.34%) were called active. Inconclusive means that the source gave no clear call. Such entries were picked first, then a sample of the others. Calls follow the shape of the dose curve; as a rule, active = well fitted inhibition curve with a large enough effect; inconclusive = small, poorly fitted or top-dose-only effect; inactive = no such curve, though single readings can be large or run the other way. Where the call is inconclusive, the potency comes from a doubtful curve fit.
# Biological target: DNA repair nuclease/redox regulator APEX1 (Homo sapiens) (UniProt P27695)
# Experiment: qHTS Assay for Inhibitors of the Human Apurinic/apyrimidinic Endonuclease 1 (APE1); also: nearly all actives have a fitted effect of over 55% in size;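 as to activity change, negative = inhibition: plate controls were vehicle for no effect and reference inhibitor for full effect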
# Conditions: recombinant APE1, TAMRA/BHQ-2 abasic DNA cleavage fluorescence; activity change, negative = inhibition: at 65.8 µM (top of the series)
# Outline: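 Substrate: short duplex with […] THF abasic site, 5'-TAMRA and 3'-BHQ-2, 50 nM final. APE1 at 0.75 nM, preincubated 15 min RT with compound. Fluorescence increase from first to third read measured activity.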
# Potency is read from the fitted curve at half-maximal effect.
SMILES,Potency,"activity change, negative = inhibition"
C/C=C/C(=O)Nc1nnc(C2CCCCC2)s1,"inconclusive: 35.5 µM [inhibitor, single point]",
COc1ccc(C(CC(=O)N2CCCC(C)C2)c2c(OC)cc(OC)c3c(-c4ccccc4)cc(=O)oc23)cc1 (centres undefined),"inconclusive: 25.1 µM [inhibitor, single point]",
O=S(=O)(Nc1cccc(S(=O)(=O)N2CCOCC2)c1)c1ccc(Cl)s1,"inconclusive: 0.0501 µM [inhibitor, full curve]",
CC#CCC(CC#CC)c1nc2ccccc2c(=O)n1N,,inactive: -0.0823%
CCOC(=O)[C@]1(C(/C=C/c2ccco2)NC(=O)OC)CCCC1=O (some centres undefined),"inconclusive: 3.98 µM [inhibitor, single point]",
CN(C)c1cc(Cl)c2nonc2c1N,"inconclusive: 10 µM [inhibitor, partial curve]",
Cc1c2c(nc3ccccc13)OCC2,"inconclusive: 0.178 µM [inhibitor, full curve]",
CN(C)S(=O)(=O)c1ccc(NC(=O)Cn2c(-c3ccccc3)noc2=O)cc1,"inconclusive: 0.0398 µM [inhibitor, full curve, poor fit]",
Cc1[nH]n(-c2ccc([N+](=O)[O-])cc2)c(=O)c1C=NCCc1c(C)[nH]c2ccccc12,"inconclusive: 28.2 µM [inhibitor, single point]",
COc1cccc(/C=N/c2oc(-c3ccccc3)cc2C#N)c1O,"inconclusive: 44.7 µM [inhibitor, single point]",
O=C(N/N=C/c1ccc2c(c1)OCO2)c1cccs1,,inactive: 3.39%
Cc1[nH]c2ccccc2c1C(O)CN1CCN(c2cccc(C(F)(F)F)c2)CC1 (centres undefined),"inconclusive: 39.8 µM [inhibitor, single point]",
CSc1nc2ccccc2n1CC(=O)Nc1ccccc1,"inconclusive: 44.7 µM [inhibitor, single point]",
O=c1c2ccccc2nnn1CSc1nc2ccccc2[nH]1,"inconclusive: 35.5 µM [inhibitor, single point]",
C=CCC(Nc1ccc(OC)cc1)C(=O)OCC (centres undefined),"inconclusive: 2.24 µM [inhibitor, full curve, poor fit]",
O=[N+]([O-])c1ccc2[nH]c(O)c(N=NC(=S)Nc3cccnc3)c2c1,"inconclusive: 39.8 µM [inhibitor, single point]",
CCOC(=O)/C(=N/Nc1ccc(OC)cc1)N1CCCc2ccccc21,"inconclusive: 5.01 µM [inhibitor, partial curve, poor fit]",
COc1ccccc1C(=O)NCC(=O)N/N=C/c1cccc(Cl)c1,"inconclusive: 8.91 µM [inhibitor, single point]",
COc1cc2nc3c(c([Si](C)(C)C(C)(C)C)c2cc1OC)Cn1c-3cccc1=O,"inconclusive: 44.7 µM [inhibitor, single point]",
COc1ccc(N2C(=S)NC3CS(=O)(=O)CC32)cc1 (centres undefined),"inconclusive: 15.8 µM [inhibitor, partial curve, poor fit]",
Cc1ccc(-c2csc(NC(=O)/C=C/c3ccco3)c2C(=O)O)cc1,"inconclusive: 31.6 µM [inhibitor, single point]",
CC(C)=NO[C@@H](C)c1cn([C@@H]2COC[C@@H]2O)nn1,,inactive: -4.37% [at 12.4 µM]

SMILES,Potency,"activity change, negative = inhibition"
CCCCn1nnnc1SCC(=O)NCc1ccco1,"inconclusive: 3.16 µM [inhibitor, partial curve]",
CC(NC(=S)Nc1cccc(F)c1)C(c1cccs1)N1CCOCC1 (centres undefined),,inactive: 2.61%
Cc1n[nH]c(=O)nc1N/N=C/c1ccc(O)c([N+](=O)[O-])c1,"inconclusive: 39.8 µM [inhibitor, single point]",
COc1ccc(NC(=O)C2CCCN(S(=O)(=O)c3c(C)n[nH]c3C)C2)cc1OC (centres undefined),"inconclusive: 28.2 µM [inhibitor, single point]",
Cc1ccc([N+](=O)[O-])cc1-c1ccc(/C=C(\C#N)c2[nH]nc(N)c2C#N)o1,"inconclusive: 31.6 µM [inhibitor, partial curve]",
Cc1nnc(Nc2ccc(O)cc2)[nH]c1=O,"inconclusive: 22.4 µM [inhibitor, partial curve]",
CC(OC(=O)C1=Cc2ccccc2OC1)C(=O)NC1CCCC1 (centres undefined),"inconclusive: 7.94 µM [inhibitor, single point]",
O=C(CSc1ccc(-c2ccco2)nn1)NCCc1ccccc1,"inconclusive: 39.8 µM [inhibitor, single point]",
O=C1NC(c2cccs2)Nc2ccccc21 (centres undefined),"inconclusive: 28.2 µM [inhibitor, single point]",
O=C(O)c1cccc(NC2=C(N3CCOCC3)C(=O)c3ccccc3C2=O)c1,"inconclusive: 3.98 µM [inhibitor, single point]",
O=C(COC(=O)C1CCCC1)Nc1ncc(Cl)cc1Cl,,inactive: -13.7%
CC1CCCCC1n1c(=S)[nH]c2ccccc2c1=O (centres undefined),"inconclusive: 35.5 µM [inhibitor, single point]",
Cc1ccccc1OC1C=CC(C#Cc2ccc(Br)cc2)OC1CO (centres undefined),"inconclusive: 8.91 µM [inhibitor, single point]",
Cc1cccc(N(CC(=O)NC(C)(C)C)C(=O)CNC(=O)c2cccs2)c1,"inconclusive: 10 µM [inhibitor, partial curve, poor fit]",
COc1cc(NC(=O)CCc2ccccc2)c(C(=O)O)cc1OC,"inconclusive: 3.98 µM [inhibitor, single point]",
COc1ccc(C(=O)NC2CCc3ccccc32)cc1OC1CCN(C(C)=O)CC1 (centres undefined),,inconclusive: 3.9% [inhibitor]
CN1CCCC[C@@H]1CCN1c2ccccc2Sc2ccc(S(C)=O)cc21 (some centres undefined),"inconclusive: 2.51 µM [inhibitor, full curve, poor fit]",
COc1ccc(C2=Nn3c(nnc3-c3ccccc3F)SC2)cc1OC1CCOC1 (centres undefined),"inconclusive: 44.7 µM [inhibitor, single point]",
Cc1ccc(NC(=O)CCC(=O)N/N=C/c2ccco2)c(C)c1,"inconclusive: 44.7 µM [inhibitor, single point]",
O=C(CCc1ccc(O)cc1)N/N=C/c1coc2ccccc2c1=O,"inconclusive: 39.8 µM [inhibitor, single point]",
CC[N+](CC)(CC#Cc1ccccc1)CC(=O)c1ccc(Cl)cc1,"inconclusive: 0.005 µM [inhibitor, full curve, poor fit]",
Cc1nn(-c2nc3ccccc3[nH]2)c(=O)c2ccccc12,"inconclusive: 7.08 µM [inhibitor, single point]",

# A second format for two compounds above:
SMILES | Potency | activity change, negative = inhibition
Cc1[nH]n(-c2ccc([N+](=O)[O-])cc2)c(=O)c1C=NCCc1c(C)[nH]c2ccccc12 | inconclusive: 28.2 µM [inhibitor, single point] | 
COc1cccc(/C=N/c2oc(-c3ccccc3)cc2C#N)c1O | inconclusive: 44.7 µM [inhibitor, single point] | 

# Later entries:

SMILES,Potency,"activity change, negative = inhibition"
Cc1ccc2c(c1)[nH]c1c(=O)n(CCC3=CCCCC3)cnc12,,inactive: 14.6%
COCCN(C(=O)COC(=O)COc1ccc2c(c1)CCC2)c1c(N)n(Cc2ccccc2)c(=O)[nH]c1=O,,inactive: -7.36%
O=C(NCc1ccco1)c1cccc2c1C(=O)c1ccc(N3CCC(Cc4ccccc4)CC3)cc1S2(=O)=O,,inactive: -12.9%
COc1ccc(NC(=O)c2ccc(Cl)nc2)cc1S(=O)(=O)N1CCOCC1,,inactive: 14.5%
N#CCC(=O)N/N=C/c1ccc(OC2CSC2)cc1,"inconclusive: 39.8 µM [inhibitor, single point]",
CCC(=O)Nc1ccc(C(=O)N/N=C/c2ccccc2[N+](=O)[O-])cc1,"inconclusive: 56.2 µM [inhibitor, partial curve]",
O=C(NCC1COc2ccccc2O1)c1ccc(Cl)c(S(=O)(=O)N2CCOCC2)c1 (centres undefined),"inconclusive: 21.2 µM [inhibitor, single point]",
COC(=O)\C(C(C)=O)=C(/C=C/C=C/N(C)C)N(C)C,"inconclusive: 17.8 µM [inhibitor, partial curve]",
O=C(Nc1ccc(S(=O)(=O)Nc2nccs2)cc1)c1ccc(N2C(=O)c3ccccc3C2=O)cc1,,inactive: 2.23%
CCS(=O)(=O)c1nc(S(=O)(=O)c2ccc(C)cc2)c(N2CCC(O)CC2)s1,"inconclusive: 37.7 µM [inhibitor, single point]",
COc1ccc(-c2cccc(C3CC=CC4C3C(=O)N(Cc3ccccc3)C4c3ccc(OC)c(Cl)c3)c2)cc1 (centres undefined),"inconclusive: 44.7 µM [inhibitor, single point]",
CC(=O)Nc1ccc(-n2nnnc2SCC(=O)Nc2cccc(NC(=O)c3ccco3)c2)cc1,"inconclusive: 28.2 µM [inhibitor, partial curve, poor fit]",
CCOc1ccc2nc(SCC(=O)c3ccc(C)s3)sc2c1,"inconclusive: 3.16 µM [inhibitor, full curve]",
COc1cc(OC)cc(-c2nnc3n2N=C(c2ccccc2OC)CS3)c1,"inconclusive: 20 µM [inhibitor, single point]",
COc1cc2c(cc1OC)C1O[C@](CCCCN3C(=O)c4ccccc4C3=O)(C2)Oc2c1c(=O)oc1ccc(F)cc21,,inactive: -29.8% [at 12.4 µM]
CC(C(=O)Nc1ccc(Cl)cc1)c1ncc(C(F)(F)F)cc1Cl (centres undefined),"inconclusive: 0.1 µM [inhibitor, full curve, poor fit]",
CC1(C)CC2CC(C)(CN2S(=O)(=O)c2ccc(C(=O)Nc3cc(S(=O)(=O)N4CCOCC4)ccc3Cl)cc2)C1 (centres undefined),"inconclusive: 0.398 µM [inhibitor, full curve, poor fit]",
CCS(=O)(=O)Nc1cccc(-c2cn3c(n2)SCC3)c1,,inactive: 57.8%
COc1ccccc1/C=c1\sc2nc(-c3ccco3)nn2c1=O,"inconclusive: 28.2 µM [inhibitor, partial curve]",
CC(C)c1[nH]c(=O)c(C#N)c2c1COC(C)(C)C2,"inconclusive: 44.7 µM [inhibitor, single point]",

# Laid out differently: results already given.
SMILES	Potency	activity change, negative = inhibition
CCS(=O)(=O)c1nc(S(=O)(=O)c2ccc(C)cc2)c(N2CCC(O)CC2)s1	inconclusive: 37.7 µM [inhibitor, single point]	
COc1cc2c(cc1OC)C1O[C@](CCCCN3C(=O)c4ccccc4C3=O)(C2)Oc2c1c(=O)oc1ccc(F)cc21		inactive: -29.8% [at 12.4 µM]
